Assay results: the supplement of paper PMC4604168 (melanoma cell lines)
The list shows a part of the results. Single values are uncertain, as repeats are few or missing.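 Imaging used 1,536-well plates; nuclei positive for cleaved PARP by antibody were divided by total DNA-stained nuclei to yield the apoptosis fraction. Doses for screening kept most cells viable, and cell lines differ markedly in resting and induced cleaved-PARP levels.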

Assays:
Assay in all cases: cleaved PARP positive nuclei fraction relative to DMSO control; melanoma cells; higher = more apoptosis
Settings in all cases: library dose: low library concentration; 72 h
[1] = system: 501Mel
[2] = system: A101D
[3] = system: A2058
[4] = system: A375
[5] = system: C32
[6] = system: CBRC013 (line from a melanoma biopsy)
[7] = system: CBRC014 (line from a melanoma biopsy)
[8] = system: CBRC016 (line from a melanoma biopsy)
[9] = system: CBRC017 (line from a melanoma biopsy)

| SMILES | cleaved PARP positive nuclei fraction [1] | cleaved PARP positive nuclei fraction [2] | cleaved PARP positive nuclei fraction [3] | cleaved PARP positive nuclei fraction [4] | cleaved PARP positive nuclei fraction [5] | cleaved PARP positive nuclei fraction [6] | cleaved PARP positive nuclei fraction [7] | cleaved PARP positive nuclei fraction [8] | cleaved PARP positive nuclei fraction [9] |
| --- | --- | --- | --- | --- | --- | --- | --- | --- | --- |
| CO[C@@H]1[C@H](N(C)C(=O)c2ccccc2)C[C@H]2O[C@]1(C)n1c3ccccc3c3c4c(c5c6ccccc6n2c5c31)C(=O)NC4 [Midostaurin] + Oc1cc(-c2nc(-c3ccccc3)[nH]c2-c2ccncc2)ccc1Cl [L779450] (first compound 0.08 µM, partner dose 0.2 µM) | 113% | 284% | 65.4% | 130% | 145% | 53.9% | 103% | 25.2% | 101% |
| CC(C)(C)c1cnc(CSc2cnc(NC(=O)C3CCNCC3)s2)o1 + CCCCCCCCCCCC1=C(O)C(=O)C=C(O)C1=O [Embelin] (first compound 0.01 µM, partner dose 1.2 µM) | 128% | 168% | 98% | 105% | 73.7% | 42.7% | 109% | 106% | 92.9% |
| OCCn1cc(-c2cnc3nnn(Cc4ccc5ncccc5c4)c3n2)cn1 + COc1ccc(COc2ccc(Cc3cnc(N)nc3N)cc2OC)cc1 [GW2580] (first compound 1 µM, partner dose 1 µM) | 137% | 106% | 194% | 161% | 130% | 92.6% | 96.9% | 68.7% | 59.8% |
| Cn1c(Nc2ccc(C(F)(F)F)cc2)nc2cc(Oc3ccnc(-c4ncc(C(F)(F)F)[nH]4)c3)ccc21 + O=C(O)C(=O)Nc1sc2c(c1C(=O)O)CCNC2 [TCS401] (first compound 0.08 µM, partner dose 1.66667 µM) | 108% | 186% | 21.4% | 395% | 67.7% | 461% | 110% | 109% | 194% |
| O=C(CCCCCCC(=O)Nc1ccccc1)NO [vorinostat] + O=c1cc(-c2cccc3c2Sc2ccccc2S3)oc(N2CCOCC2)c1 [KU55933] (first compound 0.08 µM, partner dose 1 µM) | 167% | 150% | 76.6% | 96.5% | 116% | 172% | 86.4% | 60.2% | 84.6% |
| Cn1nnc2c(C(N)=O)ncn2c1=O [temozolomide] + Cn1cc(/C=C2\C(=O)Nc3cccnc32)c2ccccc21 [GW441756] (first compound 2 µM, partner dose 0.4 µM) | 84.7% | 42.6% | 262% | 144% | 126% | 227% | 116% | 65.7% | 87.2% |
| OCCn1cc(-c2cnc3nnn(Cc4ccc5ncccc5c4)c3n2)cn1 + COc1cc(N2CCC(N3CCN(C)CC3)CC2)ccc1Nc1ncc(Cl)c(Nc2ccccc2S(=O)(=O)C(C)C)n1 [NVP-TAE684] (first compound 1 µM, partner dose 0.08 µM) | 55.2% | 161% | 168% | 315% | 135% | 121% | 215% | 84.4% | 85.3% |
| C#Cc1cccc(Nc2ncnc3cc(OCCOC)c(OCCOC)cc23)c1 [erlotinib] + CC(C)CCN1c2nc(Nc3cc(F)c(O)c(F)c3)ncc2N(C)C(=O)C1C [BID1870] (first compound 0.8 µM, partner dose 0.2 µM) | 187% | 99.1% | 78.8% | 297% | 62.3% | 421% | 93.4% | 127% | 130% |
| COc1cc(Nc2ncc(F)c(Nc3ccc4c(n3)NC(=O)C(C)(C)O4)n2)cc(OC)c1OC [Tamatinib] + COc1cc(N2CCC(N3CCN(C)CC3)CC2)ccc1Nc1ncc(Cl)c(Nc2ccccc2S(=O)(=O)C(C)C)n1 [NVP-TAE684] (first compound 0.4 µM, partner dose 0.08 µM) | 97.5% | 198% | 293% | 183% | 198% | 47.2% | 93.2% | 55.2% | 63.5% |
| Cc1nc(Nc2ncc(C(=O)Nc3c(C)cccc3Cl)s2)cc(N2CCN(CCO)CC2)n1 [dasatanib] + c1cc(-c2cnn3cc(-c4ccc(OCCN5CCCCC5)cc4)cnc23)ccn1 [Dorsomorphin] (first compound 0.004 µM, partner dose 0.4 µM) | 85.1% | 86% | 130% | 279% | 55.1% | 255% | 116% | 42.8% | 90.9% |
| C=CCn1c(=O)c2cnc(Nc3ccc(N4CCN(C)CC4)cc3)nc2n1-c1cccc(C(C)(C)O)n1 + Oc1nc(-c2ccc(C(F)(F)F)cc2)nc2c1CSCC2 [XAV939] (first compound 0.02 µM, partner dose 2 µM) | 210% | 158% | 33.7% | 244% | 209% | 60.7% | 118% | 61.6% | 76.7% |
| Nc1cccc2c1CN(C1CCC(=O)NC1=O)C2=O (configuration not stated) [lenalidomide] + CCN(CC)CCCCNc1ncc2cc(-c3cc(OC)cc(OC)c3)c(NC(=O)NC(C)(C)C)nc2n1 [PD173074] (first compound 1 µM, partner dose 0.1 µM) | 147% | 189% | 125% | 188% | 169% | 96.9% | 106% | 38.8% | 86.7% |
| NC(=O)Nc1cc(-c2cccc(F)c2)sc1C(=O)N[C@H]1CCCNC1 + CCc1ccc(CCOc2ccc(CC3SC(=O)NC3=O)cc2)nc1 [pioglitazone] (first compound 0.02 µM, partner dose 2 µM) | 86.8% | 43.2% | 53.9% | 279% | 79.6% | 104% | 205% | 45.9% | 96.9% |
| Nc1cccc2c1CN(C1CCC(=O)NC1=O)C2=O (configuration not stated) [lenalidomide] + O=c1cc(-c2cccc3c2Sc2ccccc2S3)oc(N2CCOCC2)c1 [KU55933] (first compound 1 µM, partner dose 1 µM) | 71.1% | 211% | 73.5% | 203% | 72.1% | 74.9% | 89.5% | 80.1% | 90.2% |
| COCC[n+]1c2c(n(Cc3cnccn3)c1C)C(=O)c1ccccc1C2=O + CCN(CC)CCCCNc1ncc2cc(-c3cc(OC)cc(OC)c3)c(NC(=O)NC(C)(C)C)nc2n1 [PD173074] (first compound 0.0004 µM, partner dose 0.1 µM) | 149% | 206% | 356% | 341% | 88.2% | 73.9% | 82.7% | 119% | 89.8% |
| Cn1c(Nc2ccc(C(F)(F)F)cc2)nc2cc(Oc3ccnc(-c4ncc(C(F)(F)F)[nH]4)c3)ccc21 + Oc1nc(-c2ccc(C(F)(F)F)cc2)nc2c1CSCC2 [XAV939] (first compound 0.08 µM, partner dose 2 µM) | 60.4% | 406% | 164% | 268% | 73.9% | 285% | 102% | 49.3% | 46.1% |
| C=CCn1c(=O)c2cnc(Nc3ccc(N4CCN(C)CC4)cc3)nc2n1-c1cccc(C(C)(C)O)n1 + O=S(=O)(c1ccccc1)N(CC(F)(F)F)c1ccc(C(O)(C(F)(F)F)C(F)(F)F)cc1 [T0901317] (first compound 0.02 µM, partner dose 1.4 µM) | 108% | 75.9% | 127% | 178% | 69.2% | 159% | 92.2% | 22.2% | 101% |
| COc1cc(Nc2ncc(F)c(Nc3ccc4c(n3)NC(=O)C(C)(C)O4)n2)cc(OC)c1OC [Tamatinib] + COC(=O)c1sccc1S(=O)(=O)Nc1ccc(Nc2ccccc2)cc1OC [GSK0660] (first compound 0.4 µM, partner dose 1 µM) | 83% | 109% | 98.8% | 94.8% | 122% | 284% | 97.7% | 18.6% | 100% |
| C=CCn1c(=O)c2cnc(Nc3ccc(N4CCN(C)CC4)cc3)nc2n1-c1cccc(C(C)(C)O)n1 + O=c1cc(-c2cccc3c2Sc2ccccc2S3)oc(N2CCOCC2)c1 [KU55933] (first compound 0.02 µM, partner dose 1 µM) | 139% | 281% | 74.1% | 181% | 65.3% | 52.1% | 134% | 22.7% | 117% |
| Cn1c(Nc2ccc(C(F)(F)F)cc2)nc2cc(Oc3ccnc(-c4ncc(C(F)(F)F)[nH]4)c3)ccc21 + Cn1cc(/C=C2\C(=O)Nc3cccnc32)c2ccccc21 [GW441756] (first compound 0.08 µM, partner dose 0.4 µM) | 243% | 514% | 195% | 329% | 79.1% | 275% | 101% | 93.7% | 48.9% |
| C#Cc1cccc(Nc2ncnc3cc(OCCOC)c(OCCOC)cc23)c1 [erlotinib] + COc1ccc(COc2ccc(Cc3cnc(N)nc3N)cc2OC)cc1 [GW2580] (first compound 0.8 µM, partner dose 1 µM) | 97.1% | 121% | 123% | 24.1% | 38.3% | 312% | 88.8% | 63.8% | 77% |
| C#Cc1cccc(Nc2ncnc3cc(OCCOC)c(OCCOC)cc23)c1 [erlotinib] + O=C(O)C(=O)Nc1sc2c(c1C(=O)O)CCNC2 [TCS401] (first compound 0.8 µM, partner dose 1.66667 µM) | 89.1% | 67.3% | 87.7% | 133% | 40.5% | 159% | 94.4% | 94.2% | 147% |
| CC(C)(C)c1cnc(CSc2cnc(NC(=O)C3CCNCC3)s2)o1 + COc1ccc(COc2ccc(Cc3cnc(N)nc3N)cc2OC)cc1 [GW2580] (first compound 0.01 µM, partner dose 1 µM) | 75.3% | 111% | 52.8% | 12.8% | 145% | 70.4% | 90% | 46.3% | 65.8% |

Part of the list above with just cleaved PARP positive nuclei fraction [4].
SMILES,cleaved PARP positive nuclei fraction [4]
"CO[C@@H]1[C@H](N(C)C(=O)c2ccccc2)C[C@H]2O[C@]1(C)n1c3ccccc3c3c4c(c5c6ccccc6n2c5c31)C(=O)NC4 [Midostaurin] + Oc1cc(-c2nc(-c3ccccc3)[nH]c2-c2ccncc2)ccc1Cl [L779450] (first compound 0.08 µM, partner dose 0.2 µM)",130%
"COc1cc(Nc2ncc(F)c(Nc3ccc4c(n3)NC(=O)C(C)(C)O4)n2)cc(OC)c1OC [Tamatinib] + COc1cc(N2CCC(N3CCN(C)CC3)CC2)ccc1Nc1ncc(Cl)c(Nc2ccccc2S(=O)(=O)C(C)C)n1 [NVP-TAE684] (first compound 0.4 µM, partner dose 0.08 µM)",183%
